Patent publication US11719488B2, “Lyophilization process and a teverelix-TFA lyophilizate obtained thereby” (Antev Limited, priority 2018, dated 2023)
Structures can show the parent of a compound that is named as a salt. At least one peptide structure holds a part that was inferred or is arguable (an end, a ring closure or a residue). Non-standard residues stand in square brackets, D forms with d. Residues, ends and D or L forms follow the SMILES beside them. dPhe(4-Cl) = N[C@H](Cc1ccc(Cl)cc1)C(=O)O; d2Nal = N[C@H](Cc1ccc2ccccc2c1)C(=O)O; d(hCit) = NC(=O)NCCCC[C@@H](N)C(=O)O; Lys(iPr) = CC(C)NCCCC[C@H](N)C(=O)O; d3Pal = N[C@H](Cc1cccnc1)C(=O)O

Tests used:
[1] = Previous investigations: fraction of teverelix forming solid teverelix in suspension; format: physicochemical; conditions: 104 mg/mL suspension in water for injection
[2] = Solubility of teverelix-TFA; format: physicochemical

CC(=O)N[C@H](Cc1ccc2ccccc2c1)C(=O)N[C@H](Cc1ccc(Cl)cc1)C(=O)N[C@H](Cc1cccnc1)C(=O)N[C@@H](CO)C(=O)N[C@@H](Cc1ccc(O)cc1)C(=O)N[C@H](CCCCNC(N)=O)C(=O)N[C@@H](CC(C)C)C(=O)N[C@@H](CCCCNC(C)C)C(=O)N1CCC[C@H]1C(=O)N[C@H](C)C(N)=O [Teverelix-TFA, Ac-D-Nal-D-pClPhe-D-Pal-Ser-Tyr-D-Hci-Leu-Lys(iPr)-Pro-D-Ala-NH2] (Ac-[d2Nal][dPhe(4-Cl)][d3Pal]SY[d(hCit)]L[Lys(iPr)]P[dA]-NH2)
teverelix forming solid teverelix [1]: 96%
concentration of teverelix-TFA dissolved in a solvent [2]: about 10 mg/ml
